For two substances, binding results are on record in paper PMC10214260.

Chains of the proteins cited; added tags and fusions are not shown.
UniProt P30536: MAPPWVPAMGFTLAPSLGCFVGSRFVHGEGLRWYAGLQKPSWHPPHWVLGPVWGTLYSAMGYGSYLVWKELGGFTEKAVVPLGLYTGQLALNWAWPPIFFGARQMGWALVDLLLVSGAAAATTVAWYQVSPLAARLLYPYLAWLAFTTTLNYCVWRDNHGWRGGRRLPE

No constants are given. Whether binding was seen depends on the method and setting. In cells and extracts the contact can be indirect. Some results given as binding are weak or reduced against the parent protein; the word gives no strength.

The target of assay [1] is translocator protein (TSPO), 18 kDa, mitochondrial (human (endogenous in HCCLM3 and MHCC97H)) (UniProt P30536). As to the kind of experiment: co-IP; Co-IP of TSPO and P62 'in vivo' (Figure 4D); cells and antibodies not told in the text shown.
Assay [2] deals with TSPO (as used in the GST pull-down) (UniProt P30536). The experiment in a line: pull-down; GST pull-down 'in vitro' (Figure 4E); which partner carried GST is not told.

As for P62 (from UniProt Q13501 1-440), the binding entry in assay [1] is “binds”. In the case of “P62 (as used in the GST pull-down) (from UniProt Q13501 1-440)”, the binding result in assay [2] is on record as “binds”.
